logD and solubility data for 1 molecule are collected here from ChEMBL document CHEMBL4043292, “Discovery and Optimization of Phosphopantetheine Adenylyltransferase Inhibitors with Gram-Negative Antibacterial Activity” (J Med Chem, 2018).

Some results are limits rather than exact numbers.

The nature of data set [1]: physchem. The following applies: buffer, pH 7.4.
The nature of data set [2]: physchem. The note with it: buffer.

On to `Cc1cc(N2CCN(C)CC2)c2[nH]c(N[C@H](CC#N)c3cccc(Cl)c3)nc2n1`, for which, in data set [1], the pH-dependent lipophilicity (logD) was found to be 2.6. Further, the solubility in data set [2] is more than 547 µg/mL.
